Results deposited as PubChem BioAssay AID1224828 (NIAID, 2016).

Purpose: 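Knock-downs that increase or decrease LPS-induced p65 nuclear translocation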 (primary screen)
Cell system: mouse RAW264.7 G9 macrophage reporter cells (GFP-p65, Tnf promoter-mCherry)
Reagent: siRNA pool against mouse genes, 100 nM
Duration: 2 days siRNA transfection, then 40 min LPS before fixation
Challenge: LPS (Salmonella minnesota R595) at 10 ng/ml
Measurement: 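Microscopy ratio of nuclear to perinuclear-ring GFP-p65 signal, scaled to the plate median; gene score is the average of two replicate robust z-scores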
Direction: p65 translocation robust z-score: higher = more nuclear NF-kappaB p65 after LPS than the plate median; nuclear/cytoplasmic p65 ratio: higher = more nuclear NF-kappaB p65
Hit rule: 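Active if robust z is above 3.3 (negative regulators) or below -1.56, the Tlr4 control median (positive regulators); activity score 50 or more; control wells not called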
Meaning of the calls: active = hit (p65 shift raised or lowered); inactive = no clear change
The deposit covers about 17,000 reagents; below is an unselected part. 762 of them (4.5%) were called active. 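Active calls include both raised and lowered p65 entry, mostly lowered; wells with fewer than 50 cells lack a z-score.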 Raw values are not corrected between plates. A number with no mark means an inactive call. Reagent sequences are not shown.

Golt1a
- p65 translocation robust z-score: 0.28
- nuclear/cytoplasmic p65 ratio, rep 1: 1.52
- nuclear/cytoplasmic p65 ratio, rep 2: 1.54
- low cell count flag: enough cells to score

Ccdc157
- p65 translocation robust z-score: -0.09
- nuclear/cytoplasmic p65 ratio, rep 1: 1.25
- nuclear/cytoplasmic p65 ratio, rep 2: 1.29
- low cell count flag: enough cells to score

Copz1
- nuclear/cytoplasmic p65 ratio, rep 1: 1.06
- nuclear/cytoplasmic p65 ratio, rep 2: 1.83
- low cell count flag: fewer than 50 cells per well; well left out of scoring

Dnaja4
- p65 translocation robust z-score: 0.18
- nuclear/cytoplasmic p65 ratio, rep 1: 1.47
- nuclear/cytoplasmic p65 ratio, rep 2: 1.43
- low cell count flag: enough cells to score

Eif3k
- p65 translocation robust z-score: 0.84
- nuclear/cytoplasmic p65 ratio, rep 1: 1.47
- nuclear/cytoplasmic p65 ratio, rep 2: 1.53
- low cell count flag: enough cells to score

Zfhx3
- p65 translocation robust z-score: 0.17
- nuclear/cytoplasmic p65 ratio, rep 1: 1.65
- nuclear/cytoplasmic p65 ratio, rep 2: 1.63
- low cell count flag: enough cells to score

Rcl1
- p65 translocation robust z-score: 1.6
- nuclear/cytoplasmic p65 ratio, rep 1: 1.74
- nuclear/cytoplasmic p65 ratio, rep 2: 1.31
- low cell count flag: enough cells to score

Syncrip
- p65 translocation robust z-score: 0.76
- nuclear/cytoplasmic p65 ratio, rep 1: 1.8
- nuclear/cytoplasmic p65 ratio, rep 2: 1.53
- low cell count flag: enough cells to score

Gckr
- p65 translocation robust z-score: 0.19
- nuclear/cytoplasmic p65 ratio, rep 1: 1.43
- nuclear/cytoplasmic p65 ratio, rep 2: 1.43
- low cell count flag: enough cells to score

Endou
- p65 translocation robust z-score: -0.36
- nuclear/cytoplasmic p65 ratio, rep 1: 1.49
- nuclear/cytoplasmic p65 ratio, rep 2: 1.32
- low cell count flag: enough cells to score

Rpl18
- p65 translocation robust z-score: -0.29
- nuclear/cytoplasmic p65 ratio, rep 1: 1.22
- nuclear/cytoplasmic p65 ratio, rep 2: 1.19
- low cell count flag: enough cells to score

Nsl1
- nuclear/cytoplasmic p65 ratio, rep 1: 1.31
- nuclear/cytoplasmic p65 ratio, rep 2: 0
- low cell count flag: fewer than 50 cells per well; well left out of scoring

Nnt
- p65 translocation robust z-score: 0.94
- nuclear/cytoplasmic p65 ratio, rep 1: 1.54
- nuclear/cytoplasmic p65 ratio, rep 2: 1.57
- low cell count flag: enough cells to score

Ddx4
- p65 translocation robust z-score: 1.17
- nuclear/cytoplasmic p65 ratio, rep 1: 1.83
- nuclear/cytoplasmic p65 ratio, rep 2: 1.63
- low cell count flag: enough cells to score

Dusp18
- p65 translocation robust z-score: -0.3
- nuclear/cytoplasmic p65 ratio, rep 1: 1.47
- nuclear/cytoplasmic p65 ratio, rep 2: 1.31
- low cell count flag: enough cells to score

Fem1b
- p65 translocation robust z-score: 0.73
- nuclear/cytoplasmic p65 ratio, rep 1: 1.54
- nuclear/cytoplasmic p65 ratio, rep 2: 1.48
- low cell count flag: enough cells to score

Kcne4
- p65 translocation robust z-score: -0.7
- nuclear/cytoplasmic p65 ratio, rep 1: 1.44
- nuclear/cytoplasmic p65 ratio, rep 2: 1.33
- low cell count flag: enough cells to score

Inf2
- p65 translocation robust z-score: -1.67 (active)
- nuclear/cytoplasmic p65 ratio, rep 1: 1.18
- nuclear/cytoplasmic p65 ratio, rep 2: 1.24
- low cell count flag: enough cells to score

Emid1
- p65 translocation robust z-score: 0.34
- nuclear/cytoplasmic p65 ratio, rep 1: 1.52
- nuclear/cytoplasmic p65 ratio, rep 2: 1.4
- low cell count flag: enough cells to score

Vamp3
- p65 translocation robust z-score: -1.03
- nuclear/cytoplasmic p65 ratio, rep 1: 1.19
- nuclear/cytoplasmic p65 ratio, rep 2: 1.17
- low cell count flag: enough cells to score

Clybl
- p65 translocation robust z-score: -0.27
- nuclear/cytoplasmic p65 ratio, rep 1: 1.57
- nuclear/cytoplasmic p65 ratio, rep 2: 1.71
- low cell count flag: enough cells to score

2 entries from above, reformatted.
Dnaja4 — p65 translocation robust z-score: 0.18; nuclear/cytoplasmic p65 ratio, rep 1: 1.47; nuclear/cytoplasmic p65 ratio, rep 2: 1.43; low cell count flag: enough cells to score
Eif3k — p65 translocation robust z-score: 0.84; nuclear/cytoplasmic p65 ratio, rep 1: 1.47; nuclear/cytoplasmic p65 ratio, rep 2: 1.53; low cell count flag: enough cells to score
